This assay has as its target T1, BMPRII extracellular domain (ECD), wild type (human) (UniProt Q13873).
T1 sequence: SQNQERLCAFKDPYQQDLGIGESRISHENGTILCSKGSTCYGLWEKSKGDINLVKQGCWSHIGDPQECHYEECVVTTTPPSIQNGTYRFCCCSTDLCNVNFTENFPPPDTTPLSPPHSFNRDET
Kind of assay: crystal structure; ALK1:BMP10:BMPRII ternary complex, 3.60 Å, P21; ALK1 mixed with preformed BMP10:BMPRII at 1.2:1; both purified.

The chains behind the UniProt entries cited, without tags or fusion partners. Residues count along the entry.
UniProt P37023, residues 22-118: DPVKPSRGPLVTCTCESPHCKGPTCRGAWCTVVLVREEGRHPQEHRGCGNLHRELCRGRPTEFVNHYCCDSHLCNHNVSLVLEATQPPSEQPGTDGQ

Consider one substance from PMC9064986.

No constants are given. Whether binding was seen depends on the method and setting.

Regarding “ALK1 extracellular domain (ECD) (from UniProt P37023 22-118) (domain or fragment)”, the binding result is reported as “no binding”.
